Laboratory results published in patent US7517658B2, “Methods for preparing compositions using a SNORF33 receptor” (H. Lundbeck A/S, priority 1999, dated 2009).

Sequences of proteins named here, by UniProt entry; tags and fusion partners are left off.
UniProt Q96RJ0, whole entry: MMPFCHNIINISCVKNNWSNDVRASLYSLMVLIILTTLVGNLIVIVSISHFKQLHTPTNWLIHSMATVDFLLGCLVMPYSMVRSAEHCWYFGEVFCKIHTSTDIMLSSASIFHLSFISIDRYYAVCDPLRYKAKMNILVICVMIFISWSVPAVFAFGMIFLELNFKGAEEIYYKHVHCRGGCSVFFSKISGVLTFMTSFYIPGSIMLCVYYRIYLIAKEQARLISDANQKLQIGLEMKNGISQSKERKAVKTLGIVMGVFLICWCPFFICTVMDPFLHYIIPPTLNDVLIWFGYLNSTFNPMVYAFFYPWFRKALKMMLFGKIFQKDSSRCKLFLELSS
UniProt Q923Y8, whole entry: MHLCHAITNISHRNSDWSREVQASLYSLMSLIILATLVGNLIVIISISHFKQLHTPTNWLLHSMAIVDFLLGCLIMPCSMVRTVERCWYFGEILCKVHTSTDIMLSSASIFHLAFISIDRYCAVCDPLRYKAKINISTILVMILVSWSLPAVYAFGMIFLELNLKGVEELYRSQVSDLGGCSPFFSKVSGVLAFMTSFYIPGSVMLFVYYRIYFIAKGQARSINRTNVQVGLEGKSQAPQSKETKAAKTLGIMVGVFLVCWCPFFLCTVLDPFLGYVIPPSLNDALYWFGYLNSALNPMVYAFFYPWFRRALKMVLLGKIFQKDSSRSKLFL

What was measured:
[1] = target: human SNORF33 (Homo sapiens, UniProt Q96RJ0); assay: [3H]-TYR binding (saturation and displacement) to human SNORF33 COS-7 membranes; conditions: read-out: Kd, saturation binding, tested as the radiolabelled form
[2] = target: mouse SNORF33 (Mus musculus, UniProt Q923Y8); assay: [3H]-TYR binding (saturation and displacement) to mouse SNORF33 COS-7 membranes; conditions: read-out: Kd, saturation binding, tested as the radiolabelled form

In the case of `NCCc1ccc(O)cc1`, the Kd [1] is reported as 27.9 nM and 11.8 nM and the Kd [2] is reported as 16.2 nM and 7.3 nM.

Some entries of the source have several records that differ or are many. The other results are left out here. There may be further records. The records of an entry differ, and nothing given here explains why; they may come from other doses, times, organisms or constructs than stated.
